In the supplement of paper PMC10849652:
The other results are listed elsewhere or left out.

By UniProt entry, the sequences of proteins in these tests, tags left out. Where a name states a change or a piece, a line headed by the entry shows the natural chain unless it says otherwise.
UniProt Q6P3S1: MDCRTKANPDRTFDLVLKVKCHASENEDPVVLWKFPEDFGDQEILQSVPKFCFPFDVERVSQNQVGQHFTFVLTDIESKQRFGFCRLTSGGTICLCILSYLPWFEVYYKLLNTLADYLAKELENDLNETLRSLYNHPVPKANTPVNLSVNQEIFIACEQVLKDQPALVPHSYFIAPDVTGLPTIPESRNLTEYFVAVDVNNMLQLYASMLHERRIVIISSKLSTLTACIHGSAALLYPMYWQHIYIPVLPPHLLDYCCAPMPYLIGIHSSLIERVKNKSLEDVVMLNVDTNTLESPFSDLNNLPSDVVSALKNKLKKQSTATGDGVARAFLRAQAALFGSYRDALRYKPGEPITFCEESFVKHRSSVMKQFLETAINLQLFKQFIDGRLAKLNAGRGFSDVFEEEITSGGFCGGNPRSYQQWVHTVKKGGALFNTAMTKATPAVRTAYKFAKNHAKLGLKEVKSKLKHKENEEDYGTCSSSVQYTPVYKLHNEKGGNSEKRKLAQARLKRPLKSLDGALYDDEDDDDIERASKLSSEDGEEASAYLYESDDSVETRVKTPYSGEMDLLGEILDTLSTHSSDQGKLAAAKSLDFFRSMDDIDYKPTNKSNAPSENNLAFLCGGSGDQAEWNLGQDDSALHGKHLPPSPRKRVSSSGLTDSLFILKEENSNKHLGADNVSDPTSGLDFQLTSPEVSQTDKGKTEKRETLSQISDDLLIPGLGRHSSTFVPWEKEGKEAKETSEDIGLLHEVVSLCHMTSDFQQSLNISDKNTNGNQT
UniProt Q8TF46, whole entry, looked up: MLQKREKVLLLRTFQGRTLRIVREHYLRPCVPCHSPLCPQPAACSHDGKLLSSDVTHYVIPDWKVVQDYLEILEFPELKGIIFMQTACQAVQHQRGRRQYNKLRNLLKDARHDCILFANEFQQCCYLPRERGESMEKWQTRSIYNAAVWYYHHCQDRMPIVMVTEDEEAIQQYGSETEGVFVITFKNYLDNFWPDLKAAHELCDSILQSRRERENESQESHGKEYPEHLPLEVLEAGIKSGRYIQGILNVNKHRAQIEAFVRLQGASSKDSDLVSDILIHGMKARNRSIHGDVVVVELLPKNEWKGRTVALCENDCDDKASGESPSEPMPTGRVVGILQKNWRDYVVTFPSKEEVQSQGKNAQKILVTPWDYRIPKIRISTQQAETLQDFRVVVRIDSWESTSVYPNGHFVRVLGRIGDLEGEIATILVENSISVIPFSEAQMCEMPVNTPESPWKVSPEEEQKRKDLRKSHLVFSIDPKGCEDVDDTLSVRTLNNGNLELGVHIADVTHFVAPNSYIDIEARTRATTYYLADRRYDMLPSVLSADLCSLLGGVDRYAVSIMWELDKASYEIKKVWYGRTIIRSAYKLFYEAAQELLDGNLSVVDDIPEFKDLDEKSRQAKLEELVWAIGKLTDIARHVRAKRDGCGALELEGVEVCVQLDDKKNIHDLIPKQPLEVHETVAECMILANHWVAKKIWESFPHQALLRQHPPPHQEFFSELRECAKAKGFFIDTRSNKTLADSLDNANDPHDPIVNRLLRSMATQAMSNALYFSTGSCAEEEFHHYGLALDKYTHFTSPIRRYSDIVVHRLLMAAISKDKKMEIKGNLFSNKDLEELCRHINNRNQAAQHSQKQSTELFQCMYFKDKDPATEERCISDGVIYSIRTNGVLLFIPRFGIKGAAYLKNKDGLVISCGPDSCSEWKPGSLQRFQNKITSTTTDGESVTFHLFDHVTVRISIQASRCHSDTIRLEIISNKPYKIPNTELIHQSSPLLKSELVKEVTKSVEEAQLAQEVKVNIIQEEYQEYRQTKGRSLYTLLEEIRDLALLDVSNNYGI
UniProt Q6UX07: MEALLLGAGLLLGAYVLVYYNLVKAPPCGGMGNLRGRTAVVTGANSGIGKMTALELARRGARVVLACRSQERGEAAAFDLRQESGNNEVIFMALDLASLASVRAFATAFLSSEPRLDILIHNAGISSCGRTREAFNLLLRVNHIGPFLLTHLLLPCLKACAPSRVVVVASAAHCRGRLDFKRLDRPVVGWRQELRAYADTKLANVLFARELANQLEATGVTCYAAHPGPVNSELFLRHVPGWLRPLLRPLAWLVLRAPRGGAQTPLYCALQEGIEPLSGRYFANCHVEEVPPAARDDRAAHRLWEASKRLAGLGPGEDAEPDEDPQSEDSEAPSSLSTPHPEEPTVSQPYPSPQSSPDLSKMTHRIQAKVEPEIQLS
UniProt Q68CQ4: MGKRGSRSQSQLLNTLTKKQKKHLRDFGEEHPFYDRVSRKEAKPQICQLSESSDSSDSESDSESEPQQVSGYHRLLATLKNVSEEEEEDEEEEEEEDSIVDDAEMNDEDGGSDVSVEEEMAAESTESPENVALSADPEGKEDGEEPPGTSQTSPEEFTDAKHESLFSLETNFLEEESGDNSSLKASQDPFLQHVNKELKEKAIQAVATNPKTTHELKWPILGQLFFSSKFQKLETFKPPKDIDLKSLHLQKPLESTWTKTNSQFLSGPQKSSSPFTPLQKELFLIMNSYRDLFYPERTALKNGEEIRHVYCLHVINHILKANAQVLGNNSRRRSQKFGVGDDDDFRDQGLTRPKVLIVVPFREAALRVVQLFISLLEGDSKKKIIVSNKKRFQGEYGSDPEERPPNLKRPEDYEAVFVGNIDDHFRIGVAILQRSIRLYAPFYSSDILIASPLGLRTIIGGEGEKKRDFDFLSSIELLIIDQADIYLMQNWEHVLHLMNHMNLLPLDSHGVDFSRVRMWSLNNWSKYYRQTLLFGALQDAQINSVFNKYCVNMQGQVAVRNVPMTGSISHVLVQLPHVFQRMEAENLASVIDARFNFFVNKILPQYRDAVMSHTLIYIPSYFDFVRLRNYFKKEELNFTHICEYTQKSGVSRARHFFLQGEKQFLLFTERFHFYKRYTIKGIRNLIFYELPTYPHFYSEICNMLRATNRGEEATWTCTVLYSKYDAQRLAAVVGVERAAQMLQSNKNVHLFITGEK
UniProt Q86XP3: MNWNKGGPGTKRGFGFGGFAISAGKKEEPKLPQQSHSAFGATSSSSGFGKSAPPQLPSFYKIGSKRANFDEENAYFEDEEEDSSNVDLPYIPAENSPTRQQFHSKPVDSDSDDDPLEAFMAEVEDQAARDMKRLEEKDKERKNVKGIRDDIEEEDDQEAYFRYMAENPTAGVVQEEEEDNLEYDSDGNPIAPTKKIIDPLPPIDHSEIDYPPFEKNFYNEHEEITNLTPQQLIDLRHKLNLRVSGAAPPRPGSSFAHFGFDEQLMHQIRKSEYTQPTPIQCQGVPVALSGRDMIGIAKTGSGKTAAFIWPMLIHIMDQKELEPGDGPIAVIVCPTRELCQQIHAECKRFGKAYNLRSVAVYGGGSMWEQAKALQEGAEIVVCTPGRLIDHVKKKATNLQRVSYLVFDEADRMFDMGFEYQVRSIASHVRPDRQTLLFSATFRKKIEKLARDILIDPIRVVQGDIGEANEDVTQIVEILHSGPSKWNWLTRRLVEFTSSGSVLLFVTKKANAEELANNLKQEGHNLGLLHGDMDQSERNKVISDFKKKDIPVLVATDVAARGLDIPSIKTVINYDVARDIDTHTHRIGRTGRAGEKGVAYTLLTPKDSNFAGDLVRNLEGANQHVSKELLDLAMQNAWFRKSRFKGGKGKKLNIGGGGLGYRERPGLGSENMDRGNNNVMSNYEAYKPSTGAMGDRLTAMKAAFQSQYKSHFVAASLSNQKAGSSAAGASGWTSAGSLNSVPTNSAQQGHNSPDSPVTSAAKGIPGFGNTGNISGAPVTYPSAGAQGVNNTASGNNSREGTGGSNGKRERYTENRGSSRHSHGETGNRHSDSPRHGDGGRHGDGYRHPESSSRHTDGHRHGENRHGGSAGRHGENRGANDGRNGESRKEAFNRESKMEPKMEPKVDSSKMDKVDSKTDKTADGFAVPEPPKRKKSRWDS
UniProt Q8TEH3: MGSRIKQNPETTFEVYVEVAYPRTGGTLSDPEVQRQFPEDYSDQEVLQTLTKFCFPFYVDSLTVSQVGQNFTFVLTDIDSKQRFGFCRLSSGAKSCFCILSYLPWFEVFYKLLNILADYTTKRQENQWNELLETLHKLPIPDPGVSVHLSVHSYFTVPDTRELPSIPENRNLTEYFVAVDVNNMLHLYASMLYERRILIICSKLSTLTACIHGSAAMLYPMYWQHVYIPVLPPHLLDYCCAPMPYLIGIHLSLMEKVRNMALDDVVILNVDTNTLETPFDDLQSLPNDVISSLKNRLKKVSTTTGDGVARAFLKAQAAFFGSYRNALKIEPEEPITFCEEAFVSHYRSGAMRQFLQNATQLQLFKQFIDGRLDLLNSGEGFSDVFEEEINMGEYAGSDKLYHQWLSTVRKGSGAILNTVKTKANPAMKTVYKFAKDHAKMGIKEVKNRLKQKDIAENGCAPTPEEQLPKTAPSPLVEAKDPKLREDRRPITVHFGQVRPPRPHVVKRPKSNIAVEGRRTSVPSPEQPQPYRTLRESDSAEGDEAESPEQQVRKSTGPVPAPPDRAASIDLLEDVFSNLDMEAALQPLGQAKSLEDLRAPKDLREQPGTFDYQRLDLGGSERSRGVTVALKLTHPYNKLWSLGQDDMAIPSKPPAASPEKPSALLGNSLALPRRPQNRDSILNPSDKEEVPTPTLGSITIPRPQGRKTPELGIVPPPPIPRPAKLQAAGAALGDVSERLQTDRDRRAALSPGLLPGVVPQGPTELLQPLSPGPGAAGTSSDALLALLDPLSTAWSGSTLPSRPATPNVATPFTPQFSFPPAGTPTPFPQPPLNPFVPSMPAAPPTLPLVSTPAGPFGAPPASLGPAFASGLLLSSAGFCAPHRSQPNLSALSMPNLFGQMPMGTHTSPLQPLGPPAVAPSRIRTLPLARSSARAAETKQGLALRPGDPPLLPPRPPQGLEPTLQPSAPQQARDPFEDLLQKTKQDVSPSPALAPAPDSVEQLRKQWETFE
UniProt P0CG12: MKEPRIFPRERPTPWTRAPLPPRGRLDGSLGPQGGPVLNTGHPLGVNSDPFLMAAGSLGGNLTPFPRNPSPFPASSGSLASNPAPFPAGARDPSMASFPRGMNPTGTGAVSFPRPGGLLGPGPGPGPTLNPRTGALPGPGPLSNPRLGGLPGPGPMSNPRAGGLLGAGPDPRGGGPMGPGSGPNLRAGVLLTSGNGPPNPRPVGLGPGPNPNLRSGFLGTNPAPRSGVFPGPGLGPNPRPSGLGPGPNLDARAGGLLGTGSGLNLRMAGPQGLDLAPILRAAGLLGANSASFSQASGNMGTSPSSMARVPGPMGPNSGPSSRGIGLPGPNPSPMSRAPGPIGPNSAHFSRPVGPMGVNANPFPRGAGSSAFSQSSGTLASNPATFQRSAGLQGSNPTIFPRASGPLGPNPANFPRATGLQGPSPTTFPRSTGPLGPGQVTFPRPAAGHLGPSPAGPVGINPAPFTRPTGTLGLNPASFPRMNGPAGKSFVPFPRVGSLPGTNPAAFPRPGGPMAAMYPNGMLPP
UniProt P51530: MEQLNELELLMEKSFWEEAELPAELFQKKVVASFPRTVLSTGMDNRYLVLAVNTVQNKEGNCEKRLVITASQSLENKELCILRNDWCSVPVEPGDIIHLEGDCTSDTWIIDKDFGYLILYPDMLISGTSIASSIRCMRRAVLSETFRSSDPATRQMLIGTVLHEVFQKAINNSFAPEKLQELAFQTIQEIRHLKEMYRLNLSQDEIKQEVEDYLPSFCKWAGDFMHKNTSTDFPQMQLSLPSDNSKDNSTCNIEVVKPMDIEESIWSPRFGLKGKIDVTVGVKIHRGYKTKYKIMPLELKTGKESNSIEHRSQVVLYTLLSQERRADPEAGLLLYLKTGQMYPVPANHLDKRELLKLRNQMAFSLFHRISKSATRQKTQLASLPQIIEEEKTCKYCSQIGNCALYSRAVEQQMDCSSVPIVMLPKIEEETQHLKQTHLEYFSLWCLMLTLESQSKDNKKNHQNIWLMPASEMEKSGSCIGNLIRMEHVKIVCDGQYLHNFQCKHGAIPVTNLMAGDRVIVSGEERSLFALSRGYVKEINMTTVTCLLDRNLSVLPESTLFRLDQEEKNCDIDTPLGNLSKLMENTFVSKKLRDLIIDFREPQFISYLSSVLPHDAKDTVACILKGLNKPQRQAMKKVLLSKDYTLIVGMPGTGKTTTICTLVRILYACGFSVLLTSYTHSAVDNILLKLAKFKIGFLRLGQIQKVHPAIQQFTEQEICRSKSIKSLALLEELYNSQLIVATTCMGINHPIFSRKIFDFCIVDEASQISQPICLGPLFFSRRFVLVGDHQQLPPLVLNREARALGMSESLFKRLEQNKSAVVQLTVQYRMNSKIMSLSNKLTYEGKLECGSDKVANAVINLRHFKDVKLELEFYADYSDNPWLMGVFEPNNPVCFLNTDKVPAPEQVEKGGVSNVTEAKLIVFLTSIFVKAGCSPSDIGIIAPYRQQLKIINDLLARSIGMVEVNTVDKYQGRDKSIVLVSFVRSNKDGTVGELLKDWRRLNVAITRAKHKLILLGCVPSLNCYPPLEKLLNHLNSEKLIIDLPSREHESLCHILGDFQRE

Compound: CC1=C(SC2=C1C(=N[C@H](C3=NN=C(N32)C)CC(=O)N)C4=CC=C(C=C4)Cl)C
Test: log2 fold change, soluble protein after heating vs DMSO (PISA); higher = thermal stabilisation; K562 cells, 10 uM, 30 min; active = over 0.2 and 3.5 SD of the protein, either way, in both replicates (recomputed)
Procedure, shortened: (§1)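 K562 cells at 2×10^6 cells/mL were given 10 μM compound for 30 min. Aliquots then went through 3 min of heating across 48°C-58°C, were pooled, and were extracted in PBS with 0.5% NP-40 at 4°C, and the supernatant after 21,000xg for 90 min was quantified by TMTpro 16plex LC-MS/MS with channel sums equalised. Thermal stability relative to control samples, from duplicates, is given as log2 fold change.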

| Target | log2 fold change |
| --- | --- |
| DIDO1 (UniProt Q9BTC0) | inactive: -0.038 |
| DENND1B (UniProt Q6P3S1) | inactive: 0.009 |
| DDX28 (UniProt Q9NUL7) | inactive: -0.102 |
| DDX24 (UniProt Q9GZR7) | inactive: -0.211 |
| DGKE (UniProt P52429) | inactive: -0.026 |
| DIS3L (UniProt Q8TF46) | inactive: -0.427 |
| DEF6 (UniProt Q9H4E7) | inactive: -0.156 |
| DLK1 (UniProt P80370) | inactive: 0.065 |
| DET1 isoform 2 (UniProt Q7L5Y6) | inactive: 0.009 |
| DDX20 (UniProt Q9UHI6) | inactive: -0.19 |
| DHRS13 (UniProt Q6UX07) | inactive: 0.084 |
| DDX11L8 (UniProt A8MPP1) | inactive: 0.152 |
| DIEXF (UniProt Q68CQ4) | inactive: 0.052 |
| DMTF1 (UniProt Q9Y222) | inactive: -0.081 |
| DDX42 (UniProt Q86XP3) | inactive: 0.029 |
| DDX27 (UniProt Q96GQ7) | inactive: -0.197 |
| DDX52 (UniProt Q9Y2R4) | inactive: -0.2 |
| DDX47 (UniProt Q9H0S4) | inactive: -0.281 |
| DDX18 (UniProt Q9NVP1) | inactive: -0.131 |
| DHRSX (UniProt Q8N5I4) | inactive: 0.055 |
| DDR1 isoform 5 (UniProt Q08345) | inactive: -0.355 |

Compound: CC1=C2C(=CC=C1)N=C(N(C2=O)C3=CC=CC=C3C)CN4C=NC5=C(N=CN=C54)N
Test: as above
Procedure, shortened: as §1

| Target | log2 fold change |
| --- | --- |
| DENND1B (UniProt Q6P3S1) | inactive: 0.109 |
| DLC1 (UniProt Q96QB1) | inactive: 0.212 |
| DENND1A isoform 6 (UniProt Q8TEH3) | inactive: 0.146 |
| DDX24 (UniProt Q9GZR7) | inactive: -0.34 |
| DERPC (UniProt P0CG12) | inactive: -0.015 |
| DDX55 (UniProt Q8NHQ9) | inactive: 0.056 |
| DIS3L (UniProt Q8TF46) | inactive: -0.019 |
| DECR2 (UniProt Q9NUI1) | inactive: 0.077 |
| DLK1 (UniProt P80370) | inactive: 0.198 |
| DHRS13 (UniProt Q6UX07) | inactive: 0.099 |
| DIEXF (UniProt Q68CQ4) | inactive: -0.061 |
| DMTF1 (UniProt Q9Y222) | inactive: 0.2 |
| DDX11 (UniProt Q96FC9) | inactive: 0.335 |
| DENND1C (UniProt Q8IV53) | inactive: 0.262 |
| DDX27 (UniProt Q96GQ7) | inactive: -0.157 |
| DDX47 (UniProt Q9H0S4) | inactive: -0.229 |
| DNA2 (UniProt P51530) | inactive: 0.2 |
| DMKN (UniProt Q6E0U4) | inactive: -0.239 |
| DGKA (UniProt P23743) | inactive: 0.322 |
| DEF8 (UniProt Q6ZN54) | inactive: -0.04 |
| DHRSX (UniProt Q8N5I4) | inactive: 0.071 |
| DDR1 isoform 5 (UniProt Q08345) | inactive: 0.163 |
